The target of this experiment is T1, 重组PRDX4 (UniProt Q13162).
T1 sequence (looked up): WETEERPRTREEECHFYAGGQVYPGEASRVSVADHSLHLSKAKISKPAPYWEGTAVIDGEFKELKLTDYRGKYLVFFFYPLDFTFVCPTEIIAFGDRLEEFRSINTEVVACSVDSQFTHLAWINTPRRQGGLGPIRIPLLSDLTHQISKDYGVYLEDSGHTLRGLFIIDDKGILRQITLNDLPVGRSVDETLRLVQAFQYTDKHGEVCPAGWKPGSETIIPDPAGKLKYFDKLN
Nature of the experiment: immunoprecipitation of 10 ng recombinant PRDX4 with 11F2 beads, western blot.

This passage reports binding results from patent CN116981688A.

Results are given in words; binding and its absence hold for the method and conditions named. Some entries that bind do so weakly or less than the wild type.

B1: 抗体11F2 (antibody, V domains shown)
VH: QVQLQQSGAELVKPGTSVKLSCKASGYTFSTHHMHWIKETTGQGLEWIGIINPGNGGTKYNVKFKGKATLTVDSSSSTAFMQLGSLTPEDSAVYYCARGNPASFDYWGQGVMVTVSS
VL: DIQMTQSPSFLSASVGDRVTINCKASQNIYKYLNWYQQKLGEAPKRLIYNTNNLETDIPSRFSGSGSGTDYTFTISSLQPEDFATYFCLQHSNFPFTFGSGTKLEIKR
Consider B1, for which the binding entry was “binds”.
